Measurements: PubChem BioAssay AID2685 (National Center for Advancing Translational Sciences (NCATS), 2010)
The list shows a part of the results. Shown are side measurements of this screen, not its main read-out; they come without a call. Most of these compounds were active or inconclusive in the main read-out, so they are no random draw. Words in brackets tell the shape of the fitted curve; partial curves, single points and poor fits give uncertain potencies.

Experiment: qHTS Assay for Lipid Storage Modulators in Drosophila S3 Cells;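 for cell number change: cells counted by Cell Tracker Red CMTPX staining in the red channel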
Details: BODIPY lipid droplet fluorescence, 18-24 h; for cell number change: measured here: cell count max response, cells fed with added oleic acid
Method in brief: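 Drosophila S3 cells loaded with oleic acid (400 uM, as added) and compounds at several concentrations; lipid droplets imaged by 488-nm laser-scanning cytometry, 500–530 nm intensity and object ratio to cell channel. Percent activity normalized to 20 uM Triacsin C.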

[1] = measured here: lipid fluorescence (Fed channel) AC50, cells fed with added oleic acid
[2] = measured here: cell number channel AC50, cells fed with added oleic acid

Structure (SMILES)	cell number change [%]	AC50 [1]	AC50 [2]
CCN(CC)C(=O)c1[nH]cnc1C(=O)NCC(=O)OCc1ccccc1	2.1		
Cc1cc(NC(=O)Cn2c(=O)oc3ccccc32)no1	14.3	0.058 µM [rising, full curve, poor fit]	
Cc1noc(C)c1CSCC(=O)N(C)CC(=O)Nc1ccccc1Br			6.51 µM [rising, single point]
COc1ccccc1NC(=O)Cn1c(C)cc(=O)c2cccc(OC)c21	-11.5	11.6 µM [falling, partial curve]	
COc1ccc(/C(C)=N/NC(=S)NCc2ccco2)cc1	-7.29		
CCOC(=O)C1=C(O)/C(=C\c2ccc(O)c(OCC)c2)N=C1C	11.8		4.11 µM [rising, single point]
CC1Cc2cc(/C=C3/SC(N4CCC(C(N)=O)CC4)=NC3=O)ccc2O1 (stereo not given)	-8.19	0.461 µM [rising, full curve, poor fit]	
CCOC(=O)c1cnn(-c2nc(OCC)cc(OCC)n2)c1C	3.37		
CC(Sc1nnnn1-c1ccc(Cl)cc1)C(=O)NCC(=O)Nc1ccc(F)c(F)c1F (stereo not given)		14.6 µM [rising, single point]	1.03 µM [rising, full curve]
Cn1nc(C(F)(F)F)c2cc(C(=O)Nc3ccc(C(F)(F)F)cc3)sc21	-39.3	0.731 µM [rising, single point]	29.1 µM [falling, single point]
Cc1cc(CN2CCN(CCC#N)CC2)c(O)c(C2(C)CCCCC2)c1		1.03 µM [rising, partial curve]	2.59 µM [rising, partial curve]
Clc1cccc(COn2c(-c3ccc(Cl)cc3Cl)nc3ncccc32)c1	-18.3		
C=CCn1cccc(C(=O)Nc2ccc(F)cc2)c1=O	10	0.0651 µM [rising, full curve, poor fit]	
O=C(NC1CCCCCCC1)c1cc(-c2ccccn2)nc2ccccc12	7.06	2.31 µM [falling, partial curve]	0.0231 µM [falling, full curve, poor fit]
O=C(CCc1ccc(S(=O)(=O)N2CCOCC2)cc1)N1CCc2ccccc2C1	42.1		29.1 µM [rising, partial curve, poor fit]
COC(=O)Cn1c(=NC(=O)c2ccc(OC)c(OC)c2)sc2cc(OC)ccc21	-50		29.1 µM [falling, single point]
Cn1cccc1C(=O)NCCc1ccccc1	7.14	6.51 µM [rising, partial curve, poor fit]	
CCOC(=O)C1=C(COC(=O)CSc2ccc(C)cc2C)NC(=O)NC1C (stereo not given)	-50	29.1 µM [rising, single point]	29.1 µM [falling, single point]
COc1ccc(C(=O)NNC(=O)C2CCN(S(=O)(=O)c3ccc(C)cc3)CC2)cc1	15.8		
C(=N\N1CCN(Cc2ccccc2)CC1)/c1ccccc1	-10.3	2.06 µM [rising, partial curve]	
CCN(C(=O)c1ccc2c(Cl)c3c(nc2c1)CCC3)c1cccc(C)c1	32	1.84 µM [rising, partial curve]	2.31 µM [rising, partial curve]

Structure (SMILES)	cell number change [%]	AC50 [1]	AC50 [2]
O=C(Cn1nnc(-c2cccc(C(F)(F)F)c2)n1)NC1CCCC1	31.3		29.1 µM [rising, single point]
Cc1cccc(C(=O)O/N=C/c2c(N3CCOCC3)n(C)c3ccccc23)c1	95.7	29.1 µM [rising, single point]	16.4 µM [rising, partial curve]
COc1n[nH]c(C(=O)Nc2nc3ccccc3s2)c1[N+](=O)[O-]	-14	0.00461 µM [falling, full curve, poor fit]	
CC(C)CN(C(=O)CN(C)S(=O)(=O)c1ccc(Cl)cc1)C1CCS(=O)(=O)C1 (stereo not given)	-20.2	29.1 µM [rising, single point]	
COc1ccc(-c2cc(-c3cccs3)nc3sc(C#N)c(N)c23)cc1	50.9	6.51 µM [rising, partial curve, poor fit]	29.1 µM [rising, single point]
COc1ccc(C(=O)c2c3ccc(OC)cc3[n+]([O-])n2Cc2ccc(C(N)=O)cc2)cc1	-8.09	0.092 µM [rising, full curve]	
O=C(CCNC(=O)Cn1ccc2ccccc2c1=O)NCCc1ccc(Cl)cc1	-30.7	18.4 µM [falling, partial curve]	16.4 µM [falling, partial curve]
COc1ccc(-c2ccnc3nc(Sc4ncc(C(F)(F)F)cc4Cl)nn23)cc1	-36.3		14.6 µM [falling, partial curve]
CCN1CCC(NC(=O)Nc2ccccc2C(=O)OC)CC1	-29		
COc1ccc(-n2cccc2/C=C2\C(=N)N3N=C(C(C)C)SC3=NC2=O)cc1	-20.8		
CSc1nc(O)c(/C=C2\C=Nc3ccccc32)[nH]1	0.548		
CCN(CC)c1ccc(C(=O)n2cnc3ccccc32)cc1	-31.9		32.6 µM [falling, single point]
CCn1c2ccccc2c2nnc(SCC(=O)N3CC(C)OC(C)C3)nc21 (stereo not given)	16.8		
CC(=O)Nc1nnc(-c2ccc3c(c2)CCCC3)o1	12.7	1.64 µM [falling, partial curve, poor fit]	
CCOc1ccc(C(=O)n2cc(C(=O)OC)c3ccccc32)cc1	-23	0.651 µM [rising, partial curve, poor fit]	
Cc1ccc(NC(=O)c2sc(Cl)nc2-c2ccccc2)cc1	-5.26	6.51 µM [rising, single point]	
O=C(CO/N=C/c1ccccc1OC(F)F)NC1CCCC1	-7.25		
CCCn1c(=O)c2c(nc3n2CCS3)n(C)c1=O	14.7	29.1 µM [rising, single point]	
COc1ccc(-c2nc(N)n(C(=O)c3ccccc3Cl)n2)cc1	33.3	5.8 µM [rising, full curve]	32.6 µM [rising, single point]
CC1(C)CC(=O)C(/C=N/n2c(C(F)(F)F)nc3ccccc3c2=O)=C(O)C1	31.4	6.51 µM [rising, single point]	10.3 µM [rising, partial curve, poor fit]
O=C(Cn1cnc2ccccc2c1=O)NCc1ccco1	-13.4	23.1 µM [falling, partial curve]	0.82 µM [falling, single point]

3 structures out of the list, arranged by count of non-hydrogen atoms, smallest number first.
Structure (SMILES)	cell number change [%]	AC50 [1]	AC50 [2]
O=C(Cn1nnc(-c2cccc(C(F)(F)F)c2)n1)NC1CCCC1	31.3		29.1 µM [rising, single point]
COc1ccc(-n2cccc2/C=C2\C(=N)N3N=C(C(C)C)SC3=NC2=O)cc1	-20.8		
COc1ccc(-c2ccnc3nc(Sc4ncc(C(F)(F)F)cc4Cl)nn23)cc1	-36.3		14.6 µM [falling, partial curve]

(next part)

Structure (SMILES)	cell number change [%]	AC50 [1]	AC50 [2]
COCCCNC(=O)Cn1cnc2sc(C)c(S(=O)(=O)N3CCN(c4ncccn4)CC3)c2c1=O	-8.13	4.11 µM [falling, single point]	
Nc1nc(SCC(=O)N2N=C3/C(=C/c4ccco4)CCCC3C2c2ccco2)n[nH]1 (stereo not given)	-12.7	2.31 µM [rising, partial curve]	0.184 µM [rising, full curve, poor fit]
CSc1nnc(NC(=O)CCc2ccccc2)s1	-37.7		32.6 µM [falling, single point]
CN(C)c1ccc(/C=N/n2c(-c3cccnc3)n[nH]c2=S)cc1	117	6.51 µM [rising, single point]	16.4 µM [rising, partial curve]
c1ccc(-c2nnc(-c3ccccc3)c(-c3c[nH]c4ccccc34)n2)cc1	-21.3	1.3 µM [falling, full curve]	
CCOc1ccc(NC(=O)CN(C)CC(=O)Nc2cc(Cl)ccc2C#N)cc1OCC		6.51 µM [rising, partial curve]	0.103 µM [rising, full curve, poor fit]
COc1ccc(CNC(=O)c2ccccc2SCC(=O)N2CCCC2)cc1OC	-4.02		
NC(=O)CN1C(=O)C(O)(CC(=O)/C=C\C=C\c2ccccc2)c2ccccc21 (stereo not given)	3.51	0.58 µM [rising, partial curve, poor fit]	
CCOc1ccccc1C1CC(=O)Nc2cc3c(cc21)OCO3 (stereo not given)	-20.5	7.31 µM [falling, full curve, poor fit]	
Cc1nc(-c2ccccc2)sc1C(=O)O	-6.01		
COc1ccc(OC)c(CN2CCSCC2)c1	30.5		
S=C(NCCc1ccccn1)Nc1cccc(Cl)c1			0.13 µM [rising, full curve, poor fit]
O=C1C=CCCC1	-1.1	0.103 µM [falling, single point]	0.116 µM [falling, full curve, poor fit]
O=C(CN1C(=O)NC2(CCCC2)C1=O)Nc1cc(C(F)(F)F)ccc1N1CCCCC1	68.4		11.6 µM [rising, partial curve]
CCCn1nnnc1COc1ccc(C(N)=O)cc1	44.1		13 µM [rising, partial curve, poor fit]
O=C(COc1ccccc1)c1cn(CC(=O)N2CCOCC2)c2ccccc12	7.14		
Cc1noc(C)c1-c1ccc2ncnc(NCc3cccc(-c4ccccc4)c3)c2c1	24.5		
CC(=O)c1cccc(N=Nc2c(-c3ccccc3)[nH]n(-c3ccccc3)c2=O)c1	-56.8	4.61 µM [falling, single point]	4.61 µM [falling, full curve]
CC(C)CC(=O)N(Cc1ccc(F)cc1)C1CCS(=O)(=O)C1 (stereo not given)	-55.7	20.6 µM [falling, single point]	32.6 µM [falling, partial curve]
